Some compounds share one wording; it may come from a single statement.
Experiment: Wax scrub test with neat solvents on waxed vinyl floor tile
Settings: neat solvent; after 1000 strokes for those that did not remove it
For `C=C(C)[C@H]1CC=C(C)CC1` [d-limonene], the “Removal of wax layer” value was “did not remove the wax layer”. For `CC(O)CC(=O)OC(C)C` (stereo not drawn) [i-propyl 3-hydroxybutyrate, isopropyl 3-hydroxybutyrate], the “Removal of wax layer” value was “did not remove the wax layer”. In the case of `CCCCOC(=O)CC(C)O` (stereo not drawn) [n-butyl 3-hydroxybutyrate], the “Removal of wax layer” value is reported as “did not remove the wax layer”.

Source: patent publication US9506017B2, “Aqueous cleaning compositions including an alkyl 3-hydroxybutyrate” (Eastman Chemical Company, priority 2013, dated 2016)
